According to publication PMC7723048:
Results are given in words; binding and its absence hold for the method and conditions named. In cells and extracts the contact can be indirect. Some binding calls cover weakened binding; strength is not graded here. For some assays here: Where a sequence is shown, tags or fusion partners need not be part of it. Blank lines part the entries; values can stand above or below the substance they belong to.

Sequences of proteins named here, by UniProt entry; tags and fusion partners are left off.
UniProt O60934: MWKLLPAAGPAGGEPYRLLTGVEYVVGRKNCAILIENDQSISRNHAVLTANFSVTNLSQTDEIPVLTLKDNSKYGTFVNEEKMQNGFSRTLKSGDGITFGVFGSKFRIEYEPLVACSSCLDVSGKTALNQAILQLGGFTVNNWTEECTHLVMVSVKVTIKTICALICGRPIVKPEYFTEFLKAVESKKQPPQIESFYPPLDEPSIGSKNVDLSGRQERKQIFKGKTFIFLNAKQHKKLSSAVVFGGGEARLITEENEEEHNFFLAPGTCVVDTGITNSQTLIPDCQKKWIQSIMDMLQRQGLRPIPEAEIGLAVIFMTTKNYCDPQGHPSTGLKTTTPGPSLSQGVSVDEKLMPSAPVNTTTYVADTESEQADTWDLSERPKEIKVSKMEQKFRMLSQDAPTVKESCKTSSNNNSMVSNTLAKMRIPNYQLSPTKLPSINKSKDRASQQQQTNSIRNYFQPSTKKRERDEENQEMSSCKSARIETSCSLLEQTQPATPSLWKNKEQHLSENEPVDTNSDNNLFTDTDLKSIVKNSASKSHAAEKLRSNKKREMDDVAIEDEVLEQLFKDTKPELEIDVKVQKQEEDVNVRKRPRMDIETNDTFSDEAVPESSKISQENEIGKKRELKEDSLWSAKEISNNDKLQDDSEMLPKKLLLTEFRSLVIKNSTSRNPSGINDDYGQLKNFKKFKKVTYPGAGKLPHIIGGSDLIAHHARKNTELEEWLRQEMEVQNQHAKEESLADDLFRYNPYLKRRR
UniProt P09874: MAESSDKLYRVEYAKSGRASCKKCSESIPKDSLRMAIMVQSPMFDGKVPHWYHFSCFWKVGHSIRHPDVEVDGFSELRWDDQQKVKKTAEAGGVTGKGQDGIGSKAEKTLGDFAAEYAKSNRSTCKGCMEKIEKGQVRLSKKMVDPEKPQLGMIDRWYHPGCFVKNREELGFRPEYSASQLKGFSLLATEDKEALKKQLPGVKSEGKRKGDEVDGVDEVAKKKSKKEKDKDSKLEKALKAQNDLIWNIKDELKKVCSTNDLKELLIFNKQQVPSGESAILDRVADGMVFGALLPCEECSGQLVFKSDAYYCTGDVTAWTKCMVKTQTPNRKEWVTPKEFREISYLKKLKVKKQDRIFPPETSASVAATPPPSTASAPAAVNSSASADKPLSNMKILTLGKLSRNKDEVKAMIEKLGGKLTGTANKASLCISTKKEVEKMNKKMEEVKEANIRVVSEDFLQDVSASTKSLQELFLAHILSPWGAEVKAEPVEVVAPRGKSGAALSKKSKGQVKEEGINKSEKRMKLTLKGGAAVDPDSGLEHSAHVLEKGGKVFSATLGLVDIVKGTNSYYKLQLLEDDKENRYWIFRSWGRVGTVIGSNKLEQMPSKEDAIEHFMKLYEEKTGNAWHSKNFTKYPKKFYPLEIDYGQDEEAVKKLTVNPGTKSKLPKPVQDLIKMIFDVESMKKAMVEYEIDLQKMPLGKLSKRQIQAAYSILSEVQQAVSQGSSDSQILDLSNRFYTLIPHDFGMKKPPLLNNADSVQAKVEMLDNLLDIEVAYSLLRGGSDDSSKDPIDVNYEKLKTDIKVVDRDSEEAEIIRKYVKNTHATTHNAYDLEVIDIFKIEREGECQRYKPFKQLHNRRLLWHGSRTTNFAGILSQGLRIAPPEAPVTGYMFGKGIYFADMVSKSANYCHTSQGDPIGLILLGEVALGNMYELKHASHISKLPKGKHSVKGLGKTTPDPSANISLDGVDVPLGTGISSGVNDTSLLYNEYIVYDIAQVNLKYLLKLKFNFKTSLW

Columns and labels:
[1] = target: T1, His-tagged BCAS2 bacterial fusion protein (UniProt O75934); assay: pull-down; in vitro pull-down of bacteria-produced fusion proteins; complexes pulled down by Ni-NTA agarose beads (His-BCAS2), GST-NBS1 detected by anti-GST immunoblot
T1 sequence: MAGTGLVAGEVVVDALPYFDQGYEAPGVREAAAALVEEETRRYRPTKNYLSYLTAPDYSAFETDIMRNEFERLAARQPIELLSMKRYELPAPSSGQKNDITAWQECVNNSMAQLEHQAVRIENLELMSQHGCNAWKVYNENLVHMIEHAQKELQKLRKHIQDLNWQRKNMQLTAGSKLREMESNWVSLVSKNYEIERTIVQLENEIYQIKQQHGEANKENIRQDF

FLAG-tagged BCAS2 = target: T2, FLAG-tagged BCAS2 (UniProt O75934); assay: co-IP; HEK 293T cells co-transfected with V5-NBS1 and FLAG-BCAS2; cell extracts precipitated with anti-FLAG antibody, immunoblot
T2 sequence: T1 sequence

GST-BCAS2 full-length = target: T3, GST-BCAS2 full-length (UniProt O75934); assay: pull-down; glutathione resin-bound GST-BCAS2 (full-length or deletion proteins, from bacteria) incubated with lysates of HEK 293T cells transfected with V5-NBS1 (full-length or deletion clones); anti-V5 western blot; only the target purified
T3 sequence: T1 sequence

[2] = target: T4, endogenous BCAS2 (HEK 293T) (human (endogenous in HEK 293T)) (UniProt O75934); assay: co-IP; endogenous proteins in HEK 293T cells; precipitated with an anti-BCAS2 antibody
T4 sequence: T1 sequence

[3] = target: T5, BCAS2 precipitated by an anti-BCAS2 antibody (cells not stated) (UniProt O75934); assay: co-IP; proteins co-immunoprecipitated by an anti-BCAS2 antibody; data not shown, cells not given
T5 sequence: T1 sequence

binding [1]: binds
Substance: GST-NBS1 bacterial fusion protein (from UniProt O60934 1-754)

binding (FLAG-tagged BCAS2): binds
binding (GST-BCAS2 full-length): binds
Substance: V5-tagged NBS1 (full-length) (from UniProt O60934 1-754)

binding [2]: binds
Substance: endogenous NBS1 (HEK 293T) (from UniProt O60934 1-754)

binding [3]: binds
Substance: poly ADP-ribose polymerase-1 (from UniProt P09874 1-1014)
